Measured values as given in PubChem BioAssay AID504444 (National Center for Advancing Translational Sciences (NCATS), 2011).
About 7,500 (2.1%) of roughly 360,000 compounds were called active. Inconclusive means that the source gave no clear call. Such entries were picked first, then a sample of the others. Calls follow the shape of the dose curve; as a rule, active = well fitted inhibition curve with a large enough effect; inconclusive = small, poorly fitted or top-dose-only effect, or effect the other way; inactive = flat fitted curve, though single readings scatter. A potency beside an inconclusive call is a rough fit, not a confirmed value.

Assay: Nrf2 qHTS screen for inhibitors; also: nearly all actives have a fitted effect of over 60% in size
Details: A549 ARE-Fluc reporter, luciferase luminescence, 18-24 h; activity change, negative = inhibition: at 46 µM (top of the series)
Procedure, shortened: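 Nrf2 activity is the BugLite luminescence, read 15 min after reagent at room temperature, following CellTiter-Fluor cytotoxicity readout (30 min, 37C). Compound titrations were applied for 18-24 h to 5000 A549 ARE_Fluc cells/well in 5% FBS OPTI-MEM.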
% is scaled to controls: 0 for no effect and ±100 for the full control effect; potency is read from the fitted curve at half-maximal effect.

| SMILES | Potency | activity change, negative = inhibition |
| --- | --- | --- |
| Cc1ccc(N2CCN(C(=O)c3c(C)oc4ncnc(N5CCOCC5)c34)CC2)c(C)c1 | inconclusive: 3.66 µM [activator, partial curve] |  |
| Cc1cc(OCC(=O)N2CCN(c3cccc(Cl)c3)CC2)c2c(C)c(C)c(=O)oc2c1 |  | inactive: 12.6% |
| COc1cc(NC(=O)NCC2CCN(Cc3ccc(C)cc3)CC2)cc(OC)c1OC | inconclusive: 29.1 µM [activator, single point] |  |
| COc1ccccc1N1CCN(CC(=O)NCC2CCCO2)CC1 (stereo not drawn) | inconclusive: 23.1 µM [activator, single point] |  |
| COc1cc(OC)cc(-c2nc(-c3cccs3)no2)c1 | inconclusive: 6.51 µM [activator, partial curve] |  |
| O=C(Nc1ccccc1)Nc1ccncc1 | inconclusive: 10.3 µM [activator, partial curve] |  |
| CCN(C(=O)COC(=O)/C=C/c1cccc(Cl)c1)c1c(N)n(Cc2ccccc2)c(=O)[nH]c1=O |  | inactive: 5.45% |
| COc1ccc(OC)c(NC(=O)c2ccc(-n3cccn3)nc2)c1 | inconclusive: 0.103 µM [falling, full curve, poor fit] |  |
| Cc1ccc(CNC(=O)c2cnc3c(-c4ccccc4)c(C)nn3c2C)o1 |  | inactive: -12.8% |
| O=C(O)c1ccc(-c2nc(-c3ccccc3Cl)cs2)cc1 | inconclusive: 1.64 µM [activator, full curve] |  |
| CCc1ccc(C(=O)COC(=O)c2cccc(N3C(=O)c4c(C)nc5ccccc5c4C3=O)c2)cc1 | inconclusive: 20.6 µM [falling, partial curve] |  |
| C=CC(=O)Nc1ccc(Nc2ccnc(Nc3ccc(N4CCN(C)CC4)cc3)n2)cc1 | active: 14.6 µM |  |
| Cc1ccc(Cn2nnc3c(=O)n(Cc4cccc(C)c4)cnc32)cc1 | inconclusive: 29.1 µM [falling, single point] |  |
| CC1=NN(c2ccccc2)C(=O)/C1=C/C=C/c1ccccc1 |  | inactive: 3.47% |
| COc1ccc(C2Nc3ccccc3C(=O)N2c2ccc(Cl)cc2)cc1Cn1cc([N+](=O)[O-])cn1 (stereo not drawn) | inconclusive: 7.31 µM [activator, partial curve] |  |
| CCc1nc(Nc2ccc3c(c2)OCCO3)c2oc3ccccc3c2n1 | inconclusive: 18.4 µM [falling, partial curve, poor fit] |  |
| COC(=O)c1cc(N=CC2=C(O)CC(C)(C)CC2=O)cc(C(=O)OC)c1 | inconclusive: 7.31 µM [falling, full curve, poor fit] |  |
| O=C(Nc1ccc(F)cc1)c1ccc(S(=O)(=O)N2CCCC2)cc1 | inconclusive: 16.4 µM [falling, partial curve, poor fit] |  |
| Cc1cc(C)c2nc(N3CCC(C(=O)N4CCN(c5ncccn5)CC4)CC3)sc2c1 | inconclusive: 14.6 µM [falling, single point] |  |
| Cc1ccc2cc(C(c3nnnn3C3CCCC3)N3CCN(c4ccc(F)cc4)CC3)c(=O)[nH]c2c1 (stereo not drawn) | inconclusive: 29.1 µM [falling, partial curve, poor fit] |  |
| CN1/C(=C\C(=O)C[n+]2ccc3ccccc3c2)C(C)(C)c2ccccc21 | active: 10.3 µM |  |

| SMILES | Potency | activity change, negative = inhibition |
| --- | --- | --- |
| Cc1nnc(SCC(=O)NC2CCS(=O)(=O)C2)n1Cc1ccccc1 (stereo not drawn) | inconclusive: 0.0259 µM [activator, full curve, poor fit] |  |
| CCOc1ccc(Nc2nc(N3CCOCC3)nc(N3CCOCC3)n2)cc1 | inconclusive: 2.91 µM [falling, full curve] |  |
| Cc1ccc(C(=O)/C=C/Nc2ccccc2C(N)=O)o1 | inconclusive: 2.91 µM [activator, partial curve] |  |
| Nc1ccc(C#Cc2ccc3oc4ccccc4c(=O)c3c2)cc1 | inconclusive: 20.6 µM [activator, single point] |  |
| O=C(Nc1nc(-c2cccs2)c(C(=O)C(F)(F)F)s1)c1ccco1 | inconclusive: 1.3 µM [falling, full curve, poor fit] |  |
| Cc1ccc(C(=O)n2c(-c3ccccc3)cnc2SCC(=O)Nc2ccc(C)cc2C)cc1 | inconclusive: 29.1 µM [falling, single point] |  |
| O=Cc1c(Cl)nc2ccccn2c1=O | inconclusive: 29.1 µM [activator, single point] |  |
| O=C1Nc2c(Br)cc(Br)c3cccc1c23 | inconclusive: 1.64 µM [falling, full curve, poor fit] |  |
| COc1cc(C2C(C#N)=C(N)OC3=C2C(=O)CC(C)(C)C3)c([N+](=O)[O-])cc1OC (stereo not drawn) | inconclusive: 23.1 µM [activator, single point] |  |
| COc1ccc(C(=O)NCCNc2ccccc2[N+](=O)[O-])cc1 | inconclusive: 5.8 µM [activator, full curve] |  |
| CCc1cccc(NC(=O)CSc2ncc3c(n2)-c2ccccc2N(CC)S3(=O)=O)c1 | inconclusive: 0.731 µM [falling, full curve, poor fit] |  |
| CCOC(=O)c1[nH]c(C)c(C(=O)OC)c1C |  | inactive: 3.88% |
| COc1ccc(NC(=O)C(C)n2nc(-c3cc(C)ccc3C)c3c(c2=O)CCCC3)cc1 (stereo not drawn) | inconclusive: 18.4 µM [falling, single point] |  |
| Cc1cccc(CCN(C(=O)c2snc(C(N)=O)c2N)C(C(=O)NCC2CCCO2)c2ccc(F)cc2)c1 (stereo not drawn) | inconclusive: 29.1 µM [activator, single point] |  |
| CCN(CC)S(=O)(=O)c1ccc(C)c(NC(=S)Nc2cccc(S(=O)(=O)N3CCCCCC3)c2)c1 | active: 23.1 µM |  |
| CC1C/C(=N\Nc2ccc(S(N)(=O)=O)cc2[N+](=O)[O-])CC(C)(C)C1 (stereo not drawn) | inconclusive: 29.1 µM [falling, partial curve, poor fit] |  |
| Cc1cc(=O)[nH]c(N/N=C/c2ccc(N(C)C)cc2)n1 | inconclusive: 20.6 µM [activator, single point] |  |
| CN(C1CCCCC1)S(=O)(=O)c1cccc(C(=O)Nc2ccccn2)c1 | inconclusive: 23.1 µM [falling, partial curve, poor fit] |  |
| Cc1c(NS(=O)(=O)c2cc(Br)cc3c2N(C(=O)C2CC2)CC3)c(=O)n(-c2ccccc2)n1C | inconclusive: 29.1 µM [falling, single point] |  |
| Cc1c(CN(C)C(=O)c2sc3cc(Cl)ccc3c2Cl)cnn1C | inconclusive: 18.4 µM [falling, single point] |  |
| Cn1cnc([N+](=O)[O-])c1Sc1nc2ccccc2[nH]1 | inconclusive: 8.2 µM [falling, partial curve] |  |

| SMILES | Potency | activity change, negative = inhibition |
| --- | --- | --- |
| CC(C)c1cc(C(=O)NNC(=S)NCc2ccco2)c(O)c(C(C)C)c1 | inconclusive: 18.4 µM [falling, single point] |  |
| CC(NNC(=S)N1CCN(c2ccccn2)CC1)c1nccc2ccccc12 (stereo not drawn) | active: 5.8 µM |  |
| CN(c1ccccc1)S(=O)(=O)c1cc(C(=O)Nc2ccccc2N2CCOCC2)ccc1Cl | inconclusive: 10.3 µM [falling, partial curve, poor fit] |  |
| Cc1c(C(=O)OCC(=O)NCCN2C(=O)CSC2=O)oc2c1ccc1ccccc12 | inconclusive: 16.4 µM [falling, partial curve, poor fit] |  |
| CCOC(=O)N1CCN(C(=O)CCNS(=O)(=O)c2ccccc2)CC1 |  | inactive: 5.06% |
| O=S(=O)(c1cccc(F)c1)N1CCN(c2nc(-c3cccs3)nc3ccccc23)CC1 |  | inactive: 22.5% |
| Cc1cccc(OCCNC(=O)c2cccc(Oc3ccc(C(F)(F)F)cc3[N+](=O)[O-])c2)c1 | inconclusive: 29.1 µM [falling, single point] |  |
| CC(=O)N1CCc2cc(S(=O)(=O)N3CCc4ccccc43)ccc21 | inconclusive: 23.1 µM [falling, single point] |  |
| CCCSc1nc2cc(S(=O)(=O)N3CCOCC3)ccc2n1CC | inconclusive: 16.4 µM [falling, partial curve, poor fit] |  |
| CCCCCCCCn1c2c(c(=N)c3ccccc31)CCC2 | active: 2.91 µM |  |
| COc1cc(C(=O)N=c2sc3c(C)ccc(OC)c3n2C)cc(OC)c1OC | inconclusive: 29.1 µM [falling, single point] |  |
| COc1ccccc1NC(=O)COc1ccc(/C=N/NC(=O)CSCc2cc(C)cc(C)c2)cc1 | inconclusive: 20.6 µM [falling, partial curve] |  |
| O=C(Nc1ccc(N2CCN(C(=O)c3ccco3)CC2)cc1)c1cc(Br)ccc1Cl | active: 23.1 µM |  |
| Cn1c(=O)c2c(ncn2CC(=O)OCC(=O)NNC(=O)c2ccc(Cl)cc2)n(C)c1=O |  | inactive: 2.31% |
| CCC(C)c1ccc(NC(=S)N2CCN(C(=O)C3CCCO3)CC2)cc1 (stereo not drawn) | inconclusive: 14.6 µM [falling, partial curve, poor fit] |  |
| O=C(CNc1ccccc1)N/N=C/c1ccc2c(c1)OCCO2 | inconclusive: 3.66 µM [activator, partial curve] |  |
| CC1C(=O)Nc2ccc(S(=O)(=O)N3CCc4ccccc4C3)cc2NC1=O (stereo not drawn) | inconclusive: 32.6 µM [falling, partial curve, poor fit] |  |
| N#C/C(=C/c1ccc(-c2cc([N+](=O)[O-])ccc2Cl)o1)C(N)=O | inconclusive: 29.1 µM [falling, single point] |  |
| CCCc1[nH]nc2c1C(c1ccc(O)c(OC)c1)C(C#N)=C(N)O2 (stereo not drawn) | inconclusive: 14.6 µM [falling, partial curve, poor fit] |  |
| O=C(O)COc1ccccc1/C=N/NC(=O)c1ccc2c(c1)OCCO2 | inconclusive: 3.66 µM [falling, partial curve, poor fit] |  |
| Cc1ccc(OCC(=O)c2c[nH]c3ccccc23)c([N+](=O)[O-])n1 | inconclusive: 29.1 µM [activator, single point] |  |

Part of the list above in order of count of non-hydrogen atoms, rising.

| SMILES | Potency | activity change, negative = inhibition |
| --- | --- | --- |
| CCOC(=O)N1CCN(C(=O)CCNS(=O)(=O)c2ccccc2)CC1 |  | inactive: 5.06% |
| CC1C(=O)Nc2ccc(S(=O)(=O)N3CCc4ccccc4C3)cc2NC1=O (stereo not drawn) | inconclusive: 32.6 µM [falling, partial curve, poor fit] |  |
| Cc1cccc(OCCNC(=O)c2cccc(Oc3ccc(C(F)(F)F)cc3[N+](=O)[O-])c2)c1 | inconclusive: 29.1 µM [falling, single point] |  |
| COc1ccccc1NC(=O)COc1ccc(/C=N/NC(=O)CSCc2cc(C)cc(C)c2)cc1 | inconclusive: 20.6 µM [falling, partial curve] |  |
